At least one compound was matched to its structure with a doubt left.
Test system: Mp132D cells
Test: Replacement of TPO by TPO receptor agonists, Mp132D cells
Format: cell-based, human
Conditions: 0.1 μM butyzamide, 3 μg/mL eltrombopag, 3 μM avatrombopag
Experimental: (§1) Next, human hematopoietic stem cells were cultured to examine whether TPO could be replaced by a TPO receptor agonist. Examples of the known TPO receptor agonist include butyzamide, eltrombopag, or avatrombopag. Human hematopoietic stem cells were cultured in a medium containing 0.1 μM butyzamide, 3 μg/mL eltrombopag, or 3 μM avatrombopag in the presence of 0.1% recombinant human serum albumin (Albumin Biosciences) or in the presence of PVA in the above culture medium without TPO. In this experiment, Mp132D cells were used as human hematopoietic stem cells.
as §1, with “TPO receptor agonists include butyzamide,” for “TPO receptor agonist include butyzamide,”

CC1=NN(c2ccc(C)c(C)c2)C(=O)/C1=N\Nc1cccc(-c2cccc(C(=O)O)c2)c1O [eltrombopag]
proliferation in the absence of TPO (in the presence of 0.1% recombinant human serum albumin): able to support proliferation
cell proliferative effect in the absence of TPO (in the presence of PVA, absence of albumin): almost none
